The values below come from PubChem BioAssay AID226 (DTP/NCI, 2004).

The structures appear in SMILES notation. The list does not hold the whole screen: it is rich in T/C values a quarter to a half above the control, in often repeated tests (any T/C) and in doses without a T/C. Other doses and runs of a compound stand elsewhere. T/C gives the treated animals as a percentage of the vehicle group. Some doses have a count of surviving animals in place of a T/C: the source files T/C as zero there, which appears to mark a toxic dose or a test without result, not a measured value. Some survivor counts are full or nearly so, which does not show that the dose was tolerated: survival well below the control is almost never listed, so the zero probably covers shortened survival too. Survivors were counted at the toxicity check, usually on the fifth day, unless a day is given; later deaths do not show. Schedules are NCI's codes, taken here to give the interval after Q, in days (D) or hours (H), and the number of doses after X. Some entries were tested several times; the results are listed from low to high. For survival time, the PubChem record calls one and a half times the control and up active, and a quarter to a half above the control has no call in these data; cut-offs in other NCI protocols can differ. Some T/C values are followed by the survivors on the day toxicity was checked, most often the fifth; without a count, all were alive then. Signs of the kind (2×) count equal records among those shown.

The assay deals with B6C3F1 mice, intracerebral ependymoblastoma, median survival T/C. Kind of assay: NCI In Vivo Anticancer Drug Screen. Data for tumor model Ependymoblastoma (intracerebral) in B6C3F1 mice. To be noted: T/C endpoint: median survival time, higher T/C = longer survival. As to the method: The antitumor activity of compounds was measured in mice bearing transplantable tumors. Survival or tumor size were measured and the results are expressed as the measurement made in the treated group (T) divided by the measurement made in the vehicle treated control group (C). The tumor model used in this assay is Ependymoblastoma (intracerebral) in B6C3F1 mice

Where [1] appears, read: dose: 64.0 mg/kg/injection, schedule: Q01DX001 (ip), vehicle: saline with Tween-80.

With `COc1ccc2c(c1OC(C)=O)-c1cc(OC(C)=O)cc3c1C(C2)N(C(=O)CN(CCCl)CCCl)CC3` (stereo unspecified), the survivor count reads like this: (dose: 25.0 mg/kg/injection, schedule: Q01DX005 (ip), vehicle: DMSO) 8 of 10; (dose: 50.0 mg/kg/injection, schedule: Q01DX005 (ip), vehicle: DMSO) 1 of 10; (dose: 100.0 mg/kg/injection, schedule: Q01DX005 (ip), vehicle: DMSO) 0 of 10; (dose: 200.0 mg/kg/injection, schedule: Q01DX005 (ip), vehicle: DMSO) 0 of 10.

On to `O=NN(CCCl)C(=O)NCCCl`, for which the T/C reads like this: (dose: 2.0 mg/kg/injection, schedule: Q01DX001 (ip), vehicle: saline with Tween-80) 97, 100, 105 (2×), 109, 121 % of control; (dose: 2.0 mg/kg/injection, schedule: Q01DX005 (ip), vehicle: Klucel (hydroxypropylcellulose) (HPC)) 98, 105, 107, 110, 111 (2×), 112, 114, 116 (3×), 117, 119, 120, 122 (2×), 122 [8 of 10 alive], 132, 159 % of control; (dose: 2.5 mg/kg/injection, schedule: Q01DX005 (ip), vehicle: saline with Tween-80) 126 % of control; (dose: 4.0 mg/kg/injection, schedule: Q01DX001 (ip), vehicle: saline with Tween-80) 98, 105, 110 [9 of 10 alive], 111, 117, 121 % of control; (dose: 4.0 mg/kg/injection, schedule: Q01DX005 (ip), vehicle: Klucel (hydroxypropylcellulose) (HPC)) 107, 116, 117, 129 [9 of 10 alive], 132, 138, 146, 152, 153 [9 of 10 alive], 154, 160, 161, 163, 165 (2×), 170, 182, 185 [9 of 10 alive], 245 % of control; (dose: 4.0 mg/kg/injection, schedule: Q01DX005 (ip), vehicle: saline + alcohol) 129 and 142 % of control. Also, the T/C is 137 % of control (dose: 5.0 mg/kg/injection, schedule: Q01DX005 (ip), vehicle: saline with Tween-80); 97, 111, 125, 131, 133, 140 % of control (dose: 8.0 mg/kg/injection, schedule: Q01DX001 (ip), vehicle: saline with Tween-80); 129 % of control (dose: 8.0 mg/kg/injection, schedule: Q01DX001 (ip), vehicle: saline); 135 % of control (dose: 10.0 mg/kg/injection, schedule: Q01DX001 (ip), vehicle: alcohol); 147 % of control (dose: 15.0 mg/kg/injection, schedule: Q01DX001 (ip), vehicle: saline + alcohol); 108, 139, 156, 175, 190, 210 % of control [8 of 10 alive] (dose: 16.0 mg/kg/injection, schedule: Q01DX001 (ip), vehicle: saline with Tween-80). The T/C is, setting by setting: (dose: 16.0 mg/kg/injection, schedule: Q01DX001 (ip), vehicle: saline) 137 % of control; (dose: 20.0 mg/kg/injection, schedule: Q01DX005 (ip), vehicle: saline with Tween-80) 126 % of control; (dose: 32.0 mg/kg/injection, schedule: Q01DX001 (ip), vehicle: saline with Tween-80) 207, 220, 254, 300 (2×), 300 % of control [9 of 10 alive]; under setting [1], 300 % of control. In addition, the survivor count runs as follows: (dose: 16.0 mg/kg/injection, schedule: Q01DX005 (ip), vehicle: saline + alcohol) 10 of 10; (dose: 16.0 mg/kg/injection, schedule: Q01DX005 (ip), vehicle: saline with Tween-80) 9 of 10; (dose: 16.0 mg/kg/injection, schedule: Q01DX009 (ip), vehicle: saline with Tween-80) 9 of 10; (dose: 40.0 mg/kg/injection, schedule: Q01DX005 (ip), vehicle: saline with Tween-80) 10 of 10; under setting [1], 8 of 10 and 10 of 10; (dose: 64.0 mg/kg/injection, schedule: Q01DX001 (ip), vehicle: saline) 10 of 10 on day 14. The survivor count (dose: 80.0 mg/kg/injection, schedule: Q01DX001 (ip), vehicle: alcohol) is 10 of 10; the survivor count (dose: 80.0 mg/kg/injection, schedule: Q01DX001 (ip), vehicle: saline with Tween-80) is 5 of 10; the survivor count (dose: 80.0 mg/kg/injection, schedule: Q01DX005 (ip), vehicle: saline with Tween-80) is 9 of 10; the survivor count (dose: 160.0 mg/kg/injection, schedule: Q01DX001 (ip), vehicle: alcohol) was 10 of 10; the survivor count (dose: 320.0 mg/kg/injection, schedule: Q01DX001 (ip), vehicle: alcohol) is given as 9 of 10.
